Test system: T. cruzi CAI/72 strain
Experiment: Antiparasitic activity in C2C12 cells infected with T. cruzi CAI/72 (image-based assay)
Type: cell-based
Conditions: ratio between CC50 C2C12 and EC50 Tc CAI/72
Experimental: Antiparasitic activity and cytotoxicity of compounds were determined as described before (da Silva et al., Boudreau et al.). Mouse myoblasts cell line C2C12 (ATCCCRL-1772), were maintained in high glucose (4.5 g/L glucose) Dulbecco’s modified Eagle’s medium (DMEM Gibco), supplemented with 1% penicillin–streptomycin 10,000 U/mL (Gibco) and 5% fetal bovine serum (FBS, Sigma-Aldrich) at 37 °C with 5% CO2. parasites (CAI/72 strain, DTU TcI) were maintained by weekly coinfection with C2C12 cells. For all activity assays, C2C12 cells were infected at a 10:1 parasite-to-cell ratio with culture-derived trypomastigotes, which were harvested from the supernatant of infected C2C12 cells. After adding compounds to 384-well black clear-bottom plates (Greiner cat. no. 781091), trypomastigotes (7000 parasites/well) and C2C12 cells (700 cells/well) were seeded in a total volume of 50 μL of DMEM per well in the 384-well plates. Compounds were first tested at 10 μM. […] Plates were imaged with the automated ImageXpress MicroXL microscope (Molecular Devices) and analyzed by MetaXpress software (Molecular Devices) using a custom module optimized for this assay. Infection levels (parasites per host cell) were normalized to the positive control (40 μM BNZ) and negative control (DMSO). Antiparasitic activity (EC50) ± standard deviation (SD) and host cell cytotoxicity (C2C12 viability) values were determined from the DRC using Prism software (GraphPad Software, La Jolla, CA). Every assay has three biological replicates, each in triplicates (n = 9 data points).

Row | SMILES | SITc | also measured
1 | CN1CCN(C(=O)N[C@@H](Cc2ccccc2)C(=O)N[C@H](/C=C/S(=O)(=O)c2ccccc2)CCc2ccccc2)CC1 [Compound K777, reference compound] | > 218.98 | 
2 | COc1cccc(/C(C)=N/Nc2nc(C)c[se]2)c1.Cl [Se2g, (E)-2-(2-(1-(3-Methoxyphenyl)ethylidene)hydrazineyl)-4-methyl-1,3-selenazole Hydrochloride] | > 3.75 | 
3 | O=C(Cn1ccnc1[N+](=O)[O-])NCc1ccccc1 [BZ, Benznidazole, reference compound] | > 6.91 | 
4 | C/C(Cc1cccc(Cl)c1)=N\NC(N)=S [Compound S1m, (E)-2-(1-(3-Chlorophenyl)propan-2-ylidene)hydrazine-1-carbothioamide] | > 3.42 | 
5 | C/C(=N\Nc1nc(C)c[se]1)c1cccc(Cl)c1.Cl [Se2i, (E)-2-(2-(1-(3-Chlorophenyl)ethylidene)hydrazineyl)-4-methyl-1,3-selenazole Hydrochloride] | > 18.98 | SITc (listed as Se 2i): higher than 10
6 | C/C(=N\NC(N)=[Se])c1ccc(Br)cc1 [Se1f, (E)-2-(1-(4-Bromophenyl)ethylidene)hydrazine-1-carboselenoamide] | > 13.00 | SITc (listed as Se 1f): higher than 10
7 | C/C(=N\Nc1nc(C)c[se]1)c1cccc([N+](=O)[O-])c1.Cl [Se2h, (E)-4-Methyl-2-(2-(1-(3-nitrophenyl)ethylidene)hydrazineyl)-1,3-selenazole Hydrochloride] | > 32.47 | SITc (listed as Se 2h): higher than 10
8 | C/C(=N\Nc1nc(C)c[se]1)c1ccsc1.Cl [Se2l, (E)-4-Methyl-2-(2-(1-(thiophen-3-yl)ethylidene)hydrazineyl)-1,3-selenazole Hydrochloride] | > 2.68 | 

From article PMC12320831, “Synthesis and Biological Evaluation of New Chalcogen Semicarbazone (S, Se) and Their Azole Derivatives against Chagas Disease” (Journal of Medicinal Chemistry, 2024)
